Source: article PMC7311325
These are yes or no findings as the source states them, for the method shown.

The chains behind the UniProt entries cited, without tags or fusion partners. Residues count along the entry.
UniProt P02768, residues 25-609: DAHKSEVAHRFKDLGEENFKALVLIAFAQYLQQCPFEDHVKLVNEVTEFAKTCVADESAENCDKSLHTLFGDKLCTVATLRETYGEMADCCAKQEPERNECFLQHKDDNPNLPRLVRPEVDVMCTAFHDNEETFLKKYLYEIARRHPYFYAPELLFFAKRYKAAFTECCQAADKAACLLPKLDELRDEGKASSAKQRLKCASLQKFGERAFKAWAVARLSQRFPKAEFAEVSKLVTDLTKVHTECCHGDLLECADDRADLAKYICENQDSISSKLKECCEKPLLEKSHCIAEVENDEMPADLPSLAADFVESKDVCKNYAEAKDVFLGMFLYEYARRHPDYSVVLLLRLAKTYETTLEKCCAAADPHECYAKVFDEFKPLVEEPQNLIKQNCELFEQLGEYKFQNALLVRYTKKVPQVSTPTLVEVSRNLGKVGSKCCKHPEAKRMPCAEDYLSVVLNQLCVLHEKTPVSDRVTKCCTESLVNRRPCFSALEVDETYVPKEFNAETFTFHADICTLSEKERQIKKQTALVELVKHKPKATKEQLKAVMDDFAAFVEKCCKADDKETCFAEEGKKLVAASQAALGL

Molecular target: serum albumin (UniProt P02768)
Assay: cross-linking; cross-linking mass spectrometry: protein and peptides in PBS pH 7.0, cross-linker DSSO (final 10 µmol/L), room temperature 1 h with shaking; GeLC, trypsin digestion, LC-MS/MS, cross-links searched with MeroX 2.0; both purified

Binder	binding
VNVDEVGGEALGRLLVVYPWTQR [Peptide 1 (hemoglobin-derived peptide …)]	no binding
MFLSFPTTK [Peptide 3 (hemoglobin-derived peptide …)]	no binding

Continued, values first:

binding	Binder
no binding	LLVVYPWTQR [Peptide 2 (hemoglobin-derived peptide …)]
no binding	FLASVSTVLTSKYR [Peptide 5 (hemoglobin-derived peptide …)]
